This is an account of results in PMC8320897, “Inhibition of PI3K and MAPK pathways along with KIT inhibitors as a strategy to overcome drug resistance in gastrointestinal stromal tumors” (PLoS ONE, 2021).

pIC50: −log10 of the molar value.

The pIC50 is the negative decadic logarithm of the IC50, by convention in mol/L. A lower pIC50 goes with a high IC50.

What all share (type): cell-based
Assay [1] relates to GIST-T1. As to the kind of experiment: Cell proliferation assay (Cell Counting Kit-8), drug screen. Particulars: Homo sapiens, GISTT1; cell viability after 72 hours of treatment. Background: Tetrazolium assays rely on reduction of a dye to a coloured formazan, in cell work by metabolically active cells.
Assay [2] deals with GIST-T1/670. As to the kind of experiment: Cell proliferation assay (Cell Counting Kit-8). The note with it: Homo sapiens, GISTT1; cell viability after 72 hours of treatment.
The test system of assay [3] is GIST-T1/10R. As to the kind of experiment: Cell proliferation assay (Cell Counting Kit-8). The note with it: Homo sapiens, GISTT1; cell viability after 72 hours of treatment.
Assay [4] deals with GIST882. As to the kind of experiment: Cell proliferation assay (Cell Counting Kit-8), drug screen. The note with it: Homo sapiens, cell viability after 72 hours of treatment.

Take `CNC(=O)c1ccccc1Sc1ccc2c(/C=C/c3ccccn3)n[nH]c2c1` [Axitinib]: the pIC50 is more than 9.00 in assay [1], 6.30 in assay [2], 6.30 in assay [3] and more than 8.00 in assay [4].
